The results in this text go back to publication PMC10138966.

Sequences of proteins named here, by UniProt entry; tags and fusion partners are left off.
UniProt Q16665: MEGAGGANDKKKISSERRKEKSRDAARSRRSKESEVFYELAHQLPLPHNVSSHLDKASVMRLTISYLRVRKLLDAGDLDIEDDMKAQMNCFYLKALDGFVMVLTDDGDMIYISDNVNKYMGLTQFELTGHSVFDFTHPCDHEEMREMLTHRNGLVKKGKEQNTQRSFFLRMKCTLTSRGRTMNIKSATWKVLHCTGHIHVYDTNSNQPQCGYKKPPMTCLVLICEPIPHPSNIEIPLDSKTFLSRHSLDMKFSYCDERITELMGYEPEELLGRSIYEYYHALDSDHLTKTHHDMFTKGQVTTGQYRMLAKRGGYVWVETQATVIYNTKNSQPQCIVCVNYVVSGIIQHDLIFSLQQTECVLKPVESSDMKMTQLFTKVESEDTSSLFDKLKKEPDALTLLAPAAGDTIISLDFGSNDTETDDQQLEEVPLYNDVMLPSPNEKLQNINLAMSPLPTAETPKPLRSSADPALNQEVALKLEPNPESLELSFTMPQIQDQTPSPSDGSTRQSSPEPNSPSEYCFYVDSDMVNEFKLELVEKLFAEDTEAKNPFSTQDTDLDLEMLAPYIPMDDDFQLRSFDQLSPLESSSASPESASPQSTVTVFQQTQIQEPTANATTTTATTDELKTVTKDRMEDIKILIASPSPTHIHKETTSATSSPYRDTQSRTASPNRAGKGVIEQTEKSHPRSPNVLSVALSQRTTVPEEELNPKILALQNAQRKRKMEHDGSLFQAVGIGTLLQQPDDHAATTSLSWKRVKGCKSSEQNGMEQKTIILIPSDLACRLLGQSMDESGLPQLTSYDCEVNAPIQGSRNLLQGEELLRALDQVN

The test has as its target hypoxia-inducible factor-1α (HIF1α) (human (endogenous in SGC7901)) (UniProt Q16665). As to the kind of experiment: co-IP; SGC7901 cells after hypoxic stimulation for 24 h; which protein was precipitated is not told.

These are yes or no findings as the source states them, for the method shown. In cells and extracts the contact can be indirect. Some results given as binding are weak or reduced against the parent protein; the word gives no strength.

B1: serine hydroxymethyltransferase 2 (SHMT2) (enzyme, UniProt P34897 30-504)
chain: NAAQTQTGEANRGWTGQESLSDSDPEMWELLQREKDRQCRGLELIASENFCSRAALEALGSCLNNKYSEGYPGKRYYGGAEVVDEIELLCQRRALEAFDLDPAQWGVNVQPYSGSPANLAVYTALLQPHDRIMGLDLPDGGHLTHGYMSDVKRISATSIFFESMPYKLNPKTGLIDYNQLALTARLFRPRLIIAGTSAYARLIDYARMREVCDEVKAHLLADMAHISGLVAAKVIPSPFKHADIVTTTTHKTLRGARSGLIFYRKGVKAVDPKTGREIPYTFEDRINFAVFPSLQGGPHNHAIAAVAVALKQACTPMFREYSLQVLKNARAMADALLERGYSLVSGGTDNHLVLVDLRPKGLDGARAERVLELVSITANKNTCPGDRSAITPGGLRLGAPALTSRQFREDDFRRVVDFIDEGVNIGLEVKSKTAKLQDFKSFLLKDSETSQRLANLRQRVEQFARAFPMPGFDEH
Take B1: the binding entry was “binds”.
